Data taken from patent US9480703B2, “Method and composition of glycosaminoglycans in sickle cell and vascular disorders” (priority 2013, dated 2016).
Some entries share one result that the patent states for a list of compounds.

System: adhesion of normal RBCs to endothelial cells (HUVECs)
Assay: Static adhesion assay of PKH67-labeled normal RBCs on TNF-α-treated HUVECs
Format: cell-based, human
Settings: HUVECs treated with TNF-α 10 ng/ml; PSI 10 μg/ml, LMWH & SNACH 40 μg/ml

In the case of tinzaparin [LMWH], the “decrease of adhesion of normal RBCs to the endothelial layer compared to TNF-α only (positive control)” value is reported as 20-35%.
